Results deposited as PubChem BioAssay AID1671195 (Yale University, 2021)
Assay: 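Genes whose knockdown alters LDL uptake in liver cancer cells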 (primary screen). System: human Huh7 hepatoma cells. Reagents: siRNA pool against human genes, 18 nM. Duration: about 2 to 2.5 days of knockdown, then 8 h LDL uptake. Challenge: DiI-labelled LDL at 30 µg/ml for 8 h, in lipoprotein-deficient serum medium. Detection: 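Per-cell DiI-LDL intensity by automated imaging; well means scaled to the plate median and given as a robust z-score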. Direction: robust z-score: higher = more LDL uptake after knockdown. Active means: 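a gene counts as active if at least two replicate z-scores exceed ±2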.
In all, the deposit lists about 22,000 reagents; this is a random part of them. Of all reagents, about 1,510 (6.9%) are marked active. 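Active includes knockdowns raising or lowering LDL uptake; positive z-scores mean more uptake, negative mean less.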 No sequences are given here.

With DNAJC6 (GeneID 9829), what does the deposit list?
robust z-score, replicate 1: 0.513; robust z-score, replicate 2: -0.437; robust z-score, replicate 3: -0.128; call: inactive

With PMPCA (GeneID 23203), how do the results read?
robust z-score, replicate 1: 0.234; robust z-score, replicate 2: 0.799; robust z-score, replicate 3: -0.0545; call: inactive

For PURPL (GeneID 643401), what does the deposit list?
robust z-score, replicate 1: -0.336; robust z-score, replicate 2: -0.153; robust z-score, replicate 3: -0.187; call: inactive

With LOC440583 (retired record) (GeneID 440583), how do the results read?
robust z-score, replicate 1: 1.86; robust z-score, replicate 2: 1.1; robust z-score, replicate 3: 2.35; call: inactive

What did the screen give for C10orf88 (GeneID 80007)?
robust z-score, replicate 1: -1.12; robust z-score, replicate 2: -0.948; robust z-score, replicate 3: -0.963; call: inactive

Which result is listed for LOC389321 (retired record) (GeneID 389321)?
robust z-score, replicate 1: -0.478; robust z-score, replicate 2: -0.534; robust z-score, replicate 3: -0.45; call: inactive

For NLRP3 (GeneID 114548), how do the results read?
robust z-score, replicate 1: 0.0479; robust z-score, replicate 2: -1.03; robust z-score, replicate 3: -0.8; call: inactive

For LOC441969 (retired record) (GeneID 441969), how do the results read?
robust z-score, replicate 1: 0.506; robust z-score, replicate 2: 0.0777; robust z-score, replicate 3: 0.0698; call: inactive

What did the screen give for CCDC112 (GeneID 153733)?
robust z-score, replicate 1: -0.839; robust z-score, replicate 2: -2.04; robust z-score, replicate 3: -0.859; call: inactive

With AMER3 (GeneID 205147), what was measured?
robust z-score, replicate 1: -0.516; robust z-score, replicate 2: -0.528; robust z-score, replicate 3: -0.488; call: inactive

What did the screen give for USP3 (GeneID 9960)?
robust z-score, replicate 1: 5.58; robust z-score, replicate 2: 4.82; robust z-score, replicate 3: 5.16; call: active

For MAD2L2 (GeneID 10459), what was measured?
robust z-score, replicate 1: -1.47; robust z-score, replicate 2: -0.983; robust z-score, replicate 3: -2.26; call: inactive

With SFI1 (GeneID 9814), what does the deposit list?
robust z-score, replicate 1: 2; robust z-score, replicate 2: 3.04; robust z-score, replicate 3: 1.69; call: active

What did the screen give for ZNF791 (GeneID 163049)?
robust z-score, replicate 1: -0.503; robust z-score, replicate 2: -1.21; robust z-score, replicate 3: -0.0499; call: inactive

What is on record for GCNT3 (GeneID 9245)?
robust z-score, replicate 1: -0.181; robust z-score, replicate 2: 0.907; robust z-score, replicate 3: -0.122; call: inactive

What did the screen give for IFITM3 (GeneID 10410)?
robust z-score, replicate 1: -1.55; robust z-score, replicate 2: 0.188; robust z-score, replicate 3: 0.252; call: inactive

How did the screen score DPF3 (GeneID 8110)?
robust z-score, replicate 1: -0.757; robust z-score, replicate 2: -0.686; robust z-score, replicate 3: -0.93; call: inactive

How did the screen score RPS16 (GeneID 6217)?
robust z-score, replicate 1: -0.863; robust z-score, replicate 2: -0.00621; robust z-score, replicate 3: 0.274; call: inactive

Which result is listed for LOC284009 (GeneID 284009)?
robust z-score, replicate 1: 0.286; robust z-score, replicate 2: 0.213; robust z-score, replicate 3: 0.617; call: inactive

How did the screen score IL10RA (GeneID 3587)?
robust z-score, replicate 1: -1.18; robust z-score, replicate 2: -1.54; robust z-score, replicate 3: -1.68; call: inactive

For CCNI (GeneID 10983), what does the deposit list?
robust z-score, replicate 1: -0.931; robust z-score, replicate 2: -1.25; robust z-score, replicate 3: -0.223; call: inactive

For GPNMB (GeneID 10457), what does the deposit list?
robust z-score, replicate 1: -1.16; robust z-score, replicate 2: -0.815; robust z-score, replicate 3: -1.97; call: inactive

For MCHR1 (GeneID 2847), how do the results read?
robust z-score, replicate 1: 1.41; robust z-score, replicate 2: 1.67; robust z-score, replicate 3: 1.42; call: inactive

How did the screen score TSBP1-AS1 (GeneID 101929163)?
robust z-score, replicate 1: -1.29; robust z-score, replicate 2: -1.5; robust z-score, replicate 3: -1.2; call: inactive

A run of entries of the results above, for reference:
SFI1 (GeneID 9814) — robust z-score, replicate 1: 2; robust z-score, replicate 2: 3.04; robust z-score, replicate 3: 1.69; call: active
ZNF791 (GeneID 163049) — robust z-score, replicate 1: -0.503; robust z-score, replicate 2: -1.21; robust z-score, replicate 3: -0.0499; call: inactive
GCNT3 (GeneID 9245) — robust z-score, replicate 1: -0.181; robust z-score, replicate 2: 0.907; robust z-score, replicate 3: -0.122; call: inactive
